This passage reports binding results from publication PMC8396234.

By UniProt entry, the sequences of proteins in these tests, tags left out.
UniProt Q99P50: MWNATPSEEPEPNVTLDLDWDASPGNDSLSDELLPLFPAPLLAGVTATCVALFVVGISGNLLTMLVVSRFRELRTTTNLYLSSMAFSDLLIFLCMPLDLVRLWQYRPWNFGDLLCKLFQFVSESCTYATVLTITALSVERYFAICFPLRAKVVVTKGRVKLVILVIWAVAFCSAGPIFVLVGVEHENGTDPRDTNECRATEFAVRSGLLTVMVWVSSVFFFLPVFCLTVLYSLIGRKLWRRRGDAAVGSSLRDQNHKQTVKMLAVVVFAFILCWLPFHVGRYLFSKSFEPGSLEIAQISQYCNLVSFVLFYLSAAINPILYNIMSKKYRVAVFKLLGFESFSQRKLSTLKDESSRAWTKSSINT
UniProt Q92847: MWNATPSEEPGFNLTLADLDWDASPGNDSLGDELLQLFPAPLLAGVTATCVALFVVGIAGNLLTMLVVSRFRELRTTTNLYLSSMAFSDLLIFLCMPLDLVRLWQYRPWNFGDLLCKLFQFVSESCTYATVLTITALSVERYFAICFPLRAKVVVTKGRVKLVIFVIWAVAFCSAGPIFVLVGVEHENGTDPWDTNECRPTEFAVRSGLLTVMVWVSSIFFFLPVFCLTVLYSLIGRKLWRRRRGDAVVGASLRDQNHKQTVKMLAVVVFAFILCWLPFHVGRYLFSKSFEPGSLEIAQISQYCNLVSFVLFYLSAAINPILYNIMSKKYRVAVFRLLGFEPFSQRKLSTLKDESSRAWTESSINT
UniProt P47936: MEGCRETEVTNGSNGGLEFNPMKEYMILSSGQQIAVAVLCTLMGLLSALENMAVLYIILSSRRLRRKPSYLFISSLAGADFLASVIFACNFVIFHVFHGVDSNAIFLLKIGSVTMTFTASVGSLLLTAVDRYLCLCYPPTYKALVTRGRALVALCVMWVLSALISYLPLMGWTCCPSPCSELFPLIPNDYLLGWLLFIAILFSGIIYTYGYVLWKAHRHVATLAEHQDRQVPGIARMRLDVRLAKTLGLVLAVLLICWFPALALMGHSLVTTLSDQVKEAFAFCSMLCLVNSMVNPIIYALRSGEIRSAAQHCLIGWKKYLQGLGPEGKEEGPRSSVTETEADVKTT

These are yes or no findings as the source states them, for the method shown. In cells and extracts the contact can be indirect. Some results given as binding are weak or reduced against the parent protein; the word gives no strength.

The target in test [1] is GHSR1a (endogenous, mouse primary striatal neurons) (mouse (endogenous in primary striatal neurons of C57BL/6J)) (UniProt Q99P50). Description: proximity ligation; Duolink in situ PLA on fixed, permeabilised primary striatal neurons from fetuses of C57BL/6J mothers on a standard or high-fat diet; mouse anti-CB2R and rabbit anti-GHSR1a primary antibodies; red dots per cell counted.

The target in test [2] is GHSR1a fused to Rluc8 N/C hemiproteins (GHSR1a-nRLuc and GHSR1a-cRLuc) (human) (UniProt Q92847). As to the kind of experiment: split reporter; bimolecular complementation in HEK-293T cells: RLuc8 N/C hemiproteins on GHSR1a (bioluminescence) and YFP (Venus) N/C hemiproteins on CB2R (fluorescence).

For the substance “CB2R (endogenous, mouse primary striatal neurons) (from UniProt P47936 1-347) (receptor)”, in test [1], the binding entry was “binds”.
As to “GHSR1a fused to Rluc8 N/C hemiproteins (GHSR1a-nRLuc and GHSR1a-cRLuc) (from UniProt Q92847 1-366) (receptor)”, the binding entry in test [2] is on record as “binds”.
